Results are given in words; binding and its absence hold for the method and conditions named. In cells and extracts the contact can be indirect. Here binding means that the protein was enriched with, or labelled near, the bait; the list need not be complete. No binding means not detected with the bait.

This note sets out measurements from paper PMC4051986.

In this test the target is FANCB with a C-terminal protein G-streptavidin binding peptide (GS) tag (chicken). Put plainly: affinity purification with mass spectrometry; tandem affinity purification of FANCB-GS from ΔFANCB/FANCB-GS DT40 lysate at 4°C: IgG-agarose, TEV elution, streptavidin resin, biotin elution; 50 mM HEPES pH 8.0, 150 mM NaCl; SDS-PAGE bands identified by tandem mass spectrometry, FANCG and FANCM also by western blotting; the remaining subunits were also recovered from ΔFANCC cells.

B1: FAAP10 (protein, UniProt P0DJH7 1-80)
chain: MEEREGGFRKETVERLLRLHFRDGRTRVNGDALLLMAELLKVFVREAAARAARQAQAEDLEKVDIEHVEKVLPQLLLDFV
As to B1, the binding entry is given as “no binding”.

B2: FAAP16 (protein, UniProt E1BSW7 1-139)
chain: MEAAGGEQRELLIQRLRAAVHYTTGCLCQDVAEDKGVLFSKQTVAAISEITFRQCENFARDLEMFARHAKRSTITSEDVKLLARRSNSLLKYITQKSDELASSNMEQKEKKKKKSSAAKGRKTEENETPVTESEDSNMA
In the case of B2, the binding result is reported as “no binding”.
